# From ChEMBL document CHEMBL4303122, “Identification of potential treatments for COVID-19 through artificial intelligence-enabled phenomic analysis of human cells infected with SARS-CoV-2” (2020)
# The full ranking holds about 1,600 compounds; the median of “Hit score” is about 0.13, and the highest 2% start at about 0.46. The list shows a part of the results.
# Tested on: SARS-CoV-2
# Assay: Antiviral activity against SARS-CoV-2 (USA-WA1/2020 strain) measured by imaging in HRCE cells at MOI 0.4 after 96 hrs (reported as hit score from 0-1 for on-disease vs off-disease activity: scores >0.6 considered hits)
# Format: functional, Homo sapiens
row,Structure (SMILES),Hit score
1,CC1=Nc2ccc(Cl)cc2S(=O)(=O)N1 [DIAZOXIDE],0.1379
2,CC(C(=O)O)c1ccc(N2Cc3ccccc3C2=O)cc1 (stereo not given) [INDOPROFEN],0.1093
3,CN(C)CCOc1ccc(/C(=C(/CCCl)c2ccccc2)c2ccccc2)cc1 [TOREMIFENE],0.1498
4,Cc1ccc(Cl)c(Nc2ccccc2C(=O)O)c1Cl [MECLOFENAMIC ACID],0.221
5,CCCc1nc(C)c2c(=O)nc(-c3cc(S(=O)(=O)N4CCN(CC)CC4)ccc3OCC)[nH]n12,0.1574
6,COc1cc2nccc(Oc3ccc(NC(=O)C4(C(=O)Nc5ccc(F)cc5)CC4)cc3)c2cc1OC [CABOZANTINIB],0.3291
7,CCN(CC)Cc1nccn1-c1ccc([N+](=O)[O-])cc1C(=O)c1ccccc1Cl [NIZOFENONE],0.2727
8,O=C(O)/C=C/c1ccc(Cn2ccnc2)cc1 [OZAGREL],0.1126
9,C[n+]1ccccc1/C=N/O.[Cl-] [PRALIDOXIME CHLORIDE],0.1477
10,CCCCNc1ccc(C(=O)OCCOCCOCCOCCOCCOCCOCCOCCOCCOC)cc1 [BENZONATATE],0.09156
11,CC(C)(Oc1ccc(C(=O)c2ccc(Cl)cc2)cc1)C(=O)O [FENOFIBRIC ACID],0.1298
12,COCCOC(=O)C1=C(C)NC(C)=C(C(=O)OC/C=C/c2ccccc2)C1c1cccc([N+](=O)[O-])c1 (stereo not given) [CILNIDIPINE],0.1713
13,O=S1(=O)OC(c2ccc(O)cc2)(c2ccc(O)cc2)c2ccccc21 [PHENOLSULFONPHTHALEIN],0.07808
14,CCOc1nc2cccc(C(=O)O)c2n1Cc1ccc(-c2ccccc2-c2noc(=O)[nH]2)cc1 [AZILSARTAN],0.1513
15,CCn1nc(C(=O)O)c(=O)c2cc3c(cc21)OCO3 [CINOXACIN],0.1945
16,O=C(O)CCCc1ccccc1 [PHENYLBUTANOIC ACID],0.1706
17,CC(C)NCC(O)COc1ccc(CC(N)=O)cc1 (racemic) [ATENOLOL],0.2191
18,Cc1cnc(NC(=O)C2=C(O)c3ccccc3S(=O)(=O)N2C)s1 [MELOXICAM],0.07638
19,O=C(O)COC(=O)Cc1ccccc1Nc1c(Cl)cccc1Cl [ACECLOFENAC],-0.08079
20,CCN1CCN(c2cc3c(cc2F)c(=O)c(C(=O)O)cn3C2CC2)CC1 [ENROFLOXACIN],-0.1246
21,COc1cc(NS(C)(=O)=O)ccc1Nc1c2ccccc2nc2ccccc12 [AMSACRINE],-0.1254
22,C[C@]12C=CC(=O)C=C1CC[C@@H]1[C@@H]2C(=O)C[C@@]2(C)[C@H]1CC[C@]2(O)C(=O)CO [PREDNISONE],0.264
23,Cc1nnc(NS(=O)(=O)c2ccc(N)cc2)s1 [SULFAMETHIZOLE],0.1221
24,CCCCc1nc(Cl)c(C(=O)O)n1Cc1ccc(-c2ccccc2-c2nn[nH]n2)cc1 [CARBOXYLIC ACID METABOLITE],0.01747
25,C[C@H]1CN(C[C@H](Cc2ccccc2)C(=O)NCC(=O)O)CC[C@@]1(C)c1cccc(O)c1 [ALVIMOPAN],0.1062

# Part of the list above, bar-delimited.
row | Structure (SMILES) | Hit score
7 | CCN(CC)Cc1nccn1-c1ccc([N+](=O)[O-])cc1C(=O)c1ccccc1Cl [NIZOFENONE] | 0.2727
8 | O=C(O)/C=C/c1ccc(Cn2ccnc2)cc1 [OZAGREL] | 0.1126
9 | C[n+]1ccccc1/C=N/O.[Cl-] [PRALIDOXIME CHLORIDE] | 0.1477
10 | CCCCNc1ccc(C(=O)OCCOCCOCCOCCOCCOCCOCCOCCOCCOC)cc1 [BENZONATATE] | 0.09156
11 | CC(C)(Oc1ccc(C(=O)c2ccc(Cl)cc2)cc1)C(=O)O [FENOFIBRIC ACID] | 0.1298
12 | COCCOC(=O)C1=C(C)NC(C)=C(C(=O)OC/C=C/c2ccccc2)C1c1cccc([N+](=O)[O-])c1 (stereo not given) [CILNIDIPINE] | 0.1713
